Assay results as given in patent US12370255B2, “Peptide-based vaccines, methods of manufacturing, and uses thereof for inducing an immune response” (Barinthus Biotherapeutics North America, Inc., priority 2017, dated 2025).
At least one peptide structure holds a part that was inferred or is arguable (an end, a ring closure or a residue).

Assays:
CD8 T cells = assay: antigen-specific CD8 T cell responses (% IFNg+ of total CD8 T cells) from whole blood of immunized mice; assay type: in vivo; conditions: for fold increase in CD8 T cell responses, Min over LP: same hydrophobic molecule (H)
CD4 T cells = assay: antigen-specific CD4 T cell responses (% IFNg+ of total) from whole blood of immunized mice; conditions: for CD4 T cell responses: day 24
[1] = 7 B16 neoantigens as LP on Formula IV conjugates, after 2 immunizations (days 0, 14), day 24, sum of averaged responses
[2] = 7 B16 neoantigens as both minimal epitope and LP (LP+min) on Formula IV conjugates, after 2 immunizations, day 24
[3] = 7 B16 neoantigens as minimal epitope (Min) on Formula IV conjugates, after 2 immunizations, day 24
[4] = B16 neoantigens, Formula IV conjugates
[5] = Formula V conjugates, Adpgk Min plus PADRE, two vaccinations
[6] = 7 B16 neoantigens as LP on Formula IV conjugates, after 2 immunizations (days 0, 14), sum of averaged responses
[7] = 7 B16 neoantigens as both minimal epitope and LP (LP+min) on Formula IV conjugates, after 2 immunizations
[8] = 7 B16 neoantigens as minimal epitope (Min) on Formula IV conjugates, after 2 immunizations, called undetectable

CCCCc1nc2c(N)nc3ccccc3c2n1Cc1ccc(CNC(=O)CCC(NC(=O)C(CCC(=O)NCc2ccc(Cn3c(CCCC)nc4c(N)nc5ccccc5c43)cc2)NC(=O)C(CCC(=O)NCc2ccc(Cn3c(CCCC)nc4c(N)nc5ccccc5c43)cc2)NC(=O)CCC(=O)N2Cc3ccccc3C#Cc3ccccc32)C(N)=O)cc1 (centres unmarked) [Compound 3]
CD8 T cell responses (CD8 T cells; minimal epitopes (Irgq, Cpne1) linked to the hydrophobic molecule (H), after a single immunization): > 1 % IFNg+CD8 T cells of total | fold higher CD8 T cell responses, Cpne1 minimal epitope versus Cpne1 LP (CD8 T cells; peptide antigen conjugates of Formula IV linked to the hydrophobic molecule (H)): ~10 fold

CCCCc1nc2c(N)nc3ccccc3c2n1Cc1ccc(CNC(=O)CCC(NC(=O)C(CCC(=O)NCc2ccc(Cn3c(CCCC)nc4c(N)nc5ccccc5c43)cc2)NC(=O)C(CCC(=O)NCc2ccc(Cn3c(CCCC)nc4c(N)nc5ccccc5c43)cc2)NC(=O)C(CCC(=O)NCc2ccc(Cn3c(CCCC)nc4c(N)nc5ccccc5c43)cc2)NC(=O)C(CCC(=O)NCc2ccc(Cn3c(CCCC)nc4c(N)nc5ccccc5c43)cc2)NC(=O)CCC(=O)N2Cc3ccccc3C#Cc3ccccc32)C(N)=O)cc1 (centres unmarked) [Compound 4]
CD8 T cell responses (CD8 T cells; [1]): ~0.35% | CD8 T cell responses (CD8 T cells; [2]): ~0.6% | CD8 T cell responses (CD8 T cells; [3]): ~1.9% | fold increase in CD8 T cell responses, Min over LP (CD8 T cells; [4]): ~6 fold | CD8 T cell responses (in words) compared with hydrophobic molecule 2B5 (CD8 T cells; [5]): lower CD8 and CD4 T cell responses | CD4 T cell responses (CD4 T cells; [6]): ~0.25% | CD4 T cell responses (CD4 T cells; [7]): ~0.5% | CD4 T cell responses (CD4 T cells; [8]): ~0.1% | CD4 T cell responses (in words) compared with hydrophobic molecule 2B5 (CD4 T cells; [5]): lower CD8 and CD4 T cell responses

CCCCc1nc2c(N)nc3ccccc3c2n1CCCCNC(=O)CCC(NC(=O)C(CCC(=O)NCCCCn1c(CCCC)nc2c(N)nc3ccccc3c21)NC(=O)C(CCC(=O)NCCCCn1c(CCCC)nc2c(N)nc3ccccc3c21)NC(=O)C(CCC(=O)NCCCCn1c(CCCC)nc2c(N)nc3ccccc3c21)NC(=O)C(CCC(=O)NCCCCn1c(CCCC)nc2c(N)nc3ccccc3c21)NC(=O)CCC(=O)N1Cc2ccccc2C#Cc2ccccc21)C(N)=O (centres unmarked) [Compound 5]
CD8 T cell responses (CD8 T cells; [1]): ~1.0% | CD8 T cell responses (CD8 T cells; [2]): ~2.2% | CD8 T cell responses (CD8 T cells; [3]): ~4.5% | fold increase in CD8 T cell responses versus conjugates using 2BXy5 (CD8 T cells; [4]): 3- to 4 fold | fold increase in CD8 T cell responses, Min over LP (CD8 T cells; [4]): ~4 fold | CD8 T cell responses (CD8 T cells; conjugates linked to this hydrophobic molecule (H) that formed large particles, Adpgk Min plus PADRE): ~0.5% | CD8 T cell responses (CD8 T cells; conjugates linked to this hydrophobic molecule (H) that formed small particles, Adpgk Min plus PADRE): ~2.5% | fold improvement in the breadth of CD8 T cell responses versus conjugates using 2BXy5 (CD8 T cells; screen of 40 MC38 neoantigen minimal epitopes): 6 fold | CD4 T cell responses (CD4 T cells; [6]): ~0.75% | CD4 T cell responses (CD4 T cells; [7]): ~0.95% | CD4 T cell responses (CD4 T cells; [8]): ~0.1% | fold increase in CD4 T cell responses versus conjugates using 2BXy5 (CD4 T cells; [4]): 3- to 4 fold
